PubChem BioAssay AID1259424 | University of Nebraska Medical Center – 2018
Purpose: 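Find knockdowns that reproduce the expression shifts seen after KSR1 loss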 (primary screen). Cells: human HCT116 colon cancer cells. Reagent: siRNA pool against human genes, 50 nM. Read-out: 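Six signature mRNAs by branched-DNA multiplex assay, scaled to two housekeeping genes and non-targeting median, log2; matched to mean KSR1 knockdown profile by Pearson correlation and euclidean distance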. Scale: mean correlation with KSR1 profile: higher = expression change more like KSR1 knockdown.
Shown is an unselected part of about 14,000 reagents. 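Higher correlation or smaller distance means closer resemblance to KSR1 loss; control wells, including KSR1 knockdowns, recur on many plates.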 Not all columns of the deposit are shown. Reagent sequences are not shown. Not stated in the record: the time to read-out.

| target | mean correlation with KSR1 profile |
| --- | --- |
| CDH2 | 0.0947 |
| ADGRG4 | 0.572 |
| PPA1 | -0.185 |
| PRKY | 0.783 |
| IFITM2 | -0.199 |
| NDE1 | -0.363 |
| ORC2 | 0.00075 |
| TMEM144 | -0.635 |
| DR1 | -0.579 |
| MGST3 | -0.704 |
| TGIF2LX | -0.118 |
| SNAP23 | -0.235 |
| ZBTB48 | -0.353 |
| ICOSLG | -0.228 |
| PHF23 | -0.707 |
| TAS2R13 | 0.892 |
| CCDC82 | 0.198 |
| IFNW1 | -0.238 |
| DOC2A | -0.177 |
| CYTH1 | 0.0683 |
| KCNJ16 | -0.0927 |
| PLD3 | -0.568 |
| CYP2A6 | 0.0849 |
| NR2C1 | -0.19 |
| MAST3 | -0.641 |
| OR1Q1 | -0.515 |
| SRP9 | -0.204 |
| ZNF544 | -0.376 |
| SLC28A3 | -0.324 |
| ATXN2L | 0.312 |
| PPP6R3 | -0.211 |
| FIRRM | -0.65 |
| VAPB | 0.576 |
| ACP5 | -0.831 |
| UBE4A | -0.721 |
| PPFIA4 | 0.304 |
| SARNP | -0.143 |
| PRRC2A | 0.444 |
| GPS1 | -0.46 |
| CARD14 | -0.221 |
| ENPP2 | 0.278 |
| NDST4 | -0.0614 |
| IGFBP2 | -0.151 |
| MAGEA9 | 0.67 |
| R3HDM2 | -0.417 |
| BAIAP3 | 0.369 |
| B3GNT4 | 0.389 |
| REG4 | 0.125 |
| SPHK2 | 0.302 |
| CRYZL1 | 0.247 |
| MEOX2 | 0.0489 |
| HCN1 | -0.584 |
| NREP | -0.592 |
| KATNB1 | -0.238 |
| LITAF | -0.362 |
| SH3GL2 | 0.884 |
| TNFSF13 | 0.0681 |
| CPA2 | 0.0802 |
| RHD | -0.19 |
| ACRBP | -0.169 |
| CHST12 | 0.0273 |
| TVP23B | -0.294 |
| CNFN | 0.419 |

Taken from above:
Entry of REG4 in “mean correlation with KSR1 profile”: 0.125
For “mean correlation with KSR1 profile”, CARD14 shows -0.221
Value of ORC2 under “mean correlation with KSR1 profile”: 0.00075
Value for GPS1 under “mean correlation with KSR1 profile”: -0.46
ZBTB48, mean correlation with KSR1 profile: -0.353
SRP9, mean correlation with KSR1 profile → -0.204
